Laboratory results: PubChem BioAssay AID1159584 (Peter MacCallum Cancer Centre, 2016)
Shown is one part, drawn at random, of about 18,000 deposited reagents. Not stated in the record: the amount of reagent, the time to read-out.

Test: 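Genes whose loss is lethal only together with E-cadherin loss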 (primary screen)
Cell system: human MCF10A breast epithelial cells, parental and CDH1-null
Reagents: siRNA against human genes
Measurement: 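Cell viability by CellTiter-Glo ATP luminescence, each line scaled to the mean of mock wells across plates, then CDH1-null over parental ratio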
Direction: CDH1-null / parental viability ratio: higher = CDH1-null cells survive relatively better than parental; CDH1-null viability vs mock: higher = more viable CDH1-null cells; parental viability vs mock: higher = more viable parental cells

no.	Target gene	CDH1-null / parental viability ratio	CDH1-null viability vs mock (fraction of mock)	parental viability vs mock (fraction of mock)
1	NSFL1C	0.69	0.5	0.72
2	RNF38	1	0.94	0.94
3	C4orf17	1	0.94	0.94
4	ASH2L	1.31	0.92	0.7
5	MBTPS1	1.28	0.92	0.72
6	PRELID1	0.91	1.12	1.23
7	KIF17	0.93	0.51	0.55
8	TMEM8B	0.98	0.59	0.6
9	PAX1	0.99	0.91	0.92
10	SPINT4	0.93	0.68	0.73
11	FIBP	0.94	0.84	0.89
12	CASP10	1.42	0.68	0.48
13	PLA2G2F	1.27	0.76	0.6
14	UCN2	1.13	0.34	0.3
15	NIPA2	0.85	0.73	0.86
16	CXorf65	1	0.98	0.98
17	IL20RA	1.04	0.8	0.77
18	IK	1.17	0.21	0.18

Copied from the listing (5 entries):
no.	Target gene	CDH1-null / parental viability ratio	CDH1-null viability vs mock (fraction of mock)	parental viability vs mock (fraction of mock)
9	PAX1	0.99	0.91	0.92
10	SPINT4	0.93	0.68	0.73
11	FIBP	0.94	0.84	0.89
12	CASP10	1.42	0.68	0.48
13	PLA2G2F	1.27	0.76	0.6

Next records follow:
no.	Target gene	CDH1-null / parental viability ratio	CDH1-null viability vs mock (fraction of mock)	parental viability vs mock (fraction of mock)
19	TSGA10IP	0.91	0.87	0.96
20	GYG2	1.24	1.08	0.87
21	SLC12A2	0.85	0.62	0.73
22	PLEKHS1	1.23	0.64	0.52
23	H2BC9	1.21	1.11	0.92
24	GBP3	0.97	0.57	0.59
25	SHC2	0.96	0.7	0.73
26	SLC7A5	0.93	0.76	0.82
27	FSIP1	1.03	0.93	0.9
28	MMP23B	1.23	0.86	0.7
29	OLFM1	0.93	0.83	0.89
30	ZNF2	0.86	0.86	1
31	DEFB127	1.1	0.54	0.49
32	ALG10B	1.02	1.06	1.04
33	CST1	1.4	0.74	0.53
34	DEFB114	1.03	0.7	0.68
35	OR52E6	0.96	1	1.04
36	PIK3R1	0.89	0.99	1.11
37	DRC3	0.95	0.84	0.88
38	NR6A1	0.87	0.85	0.98
39	DRAM1	0.87	0.88	1.01
40	RPE65	0.88	0.67	0.76
41	TCEANC2	0.74	0.55	0.74
42	CAPZB	0.86	0.55	0.64
43	XKR5	0.95	0.7	0.74
44	SLC17A7	1.06	1.03	0.97
45	SPHK2	1.06	0.82	0.77
46	FA2H	0.92	0.88	0.96
